{"source": "the supplement of paper PMC8728848", "binders": {"B1": {"name": "SJCP1084 (Schistosoma japonicum) (protein)", "chain": "MRIINLVIISTALLLINLLQTKSQANGEDTKNGTPDDPGLTKSTELKVEVQALLKDKKTNMRVKWNENLLDNTKPEYHNLRDEACELLLQIVRSVVPLSQDDGECKDVTFTKYVVGTKDGAVNVKLTITFKDSVAINQKPMDLKLKLENDFKNLQSESTLKATKPTFTVKVEKRLIPISKPQTTPPTTAKNDASKENVGDIGGEDSTVPTAAPATAASANEEKDEGDKDNKDSQHPNVLTSNVNDRNLIIALVALMILAIGVALTAAVKQR"}}, "assay_in_all_cases": "glycan array binding signal (z-score within array); higher = stronger binding", "settings_in_all_cases": "glycan notation: IUPAC condensed, linker removed", "key": {"[1]": {"target": "GalNAc(b1-4)GlcNAc(b1-2)Man", "outline": "(§1)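 The binding signal is a Z-score computed within each array. Data were drawn from 3228 arrays in the Consortium for Functional Glycomics database, restricted to those with a known protein sequence. Scores were averaged over arrays of the same protein sequence at different concentrations or buffers, and over linkers, and negative values can be taken as non-binding.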"}, "[2]": {"target": "GalNAc(b1-4)GlcNAc(b1-2)Man(a1-3)[GalNAc(b1-4)GlcNAc(b1-2)Man(a1-6)]Man(b1-4)GlcNAc(b1-4)GlcNAc", "outline": "as §1"}, "[3]": {"target": "GalNAc(b1-4)GlcNAc(b1-3)GalNAc(b1-4)GlcNAc", "outline": "as §1"}, "GalNAc(b1-4)GlcNAc6S": {"target": "GalNAc(b1-4)GlcNAc6S", "outline": "as §1"}, "GalNAc(b1-6)GalNAc": {"target": "GalNAc(b1-6)GalNAc", "outline": "as §1"}, "GalNAc3S(b1-4)GlcNAc": {"target": "GalNAc3S(b1-4)GlcNAc", "outline": "as §1"}, "GalNAc3S(b1-4)GlcNAc3S": {"target": "GalNAc3S(b1-4)GlcNAc3S", "outline": "as §1"}, "[4]": {"target": "GalNAc3S(b1-4)[Fuc(a1-3)]GlcNAc", "outline": "as §1"}, "GalNAc4S6S(b1-4)GlcNAc": {"target": "GalNAc4S6S(b1-4)GlcNAc", "outline": "as §1"}, "GalNAc6S(b1-4)GlcNAc": {"target": "GalNAc6S(b1-4)GlcNAc", "outline": "as §1"}, "Glc(a1-4)Glc": {"target": "Glc(a1-4)Glc", "outline": "as §1"}, "[5]": {"target": "Glc(a1-4)Glc(a1-4)Glc(a1-4)Glc", "outline": "as §1"}, "Glc(a1-6)Glc(a1-6)Glc": {"target": "Glc(a1-6)Glc(a1-6)Glc", "outline": "as §1"}, "[6]": {"target": "Glc(a1-6)Glc(a1-6)Glc(a1-6)Glc", "outline": "as §1"}, "Glc(b1-4)Glc": {"target": "Glc(b1-4)Glc", "outline": "as §1"}, "Glc(b1-6)Glc": {"target": "Glc(b1-6)Glc", "outline": "as §1"}, "GlcA(b1-3)Gal": {"target": "GlcA(b1-3)Gal", "outline": "as §1"}, "GlcA(b1-3)GlcNAc": {"target": "GlcA(b1-3)GlcNAc", "outline": "as §1"}, "GlcA(b1-6)Gal": {"target": "GlcA(b1-6)Gal", "outline": "as §1"}, "[7]": {"target": "GlcA3S(b1-3)Gal(b1-4)GlcNAc(b1-2)Man", "outline": "as §1"}, "[8]": {"target": "GlcA3S(b1-3)Gal(b1-4)GlcNAc(b1-3)Gal(b1-4)Glc", "outline": "as §1"}, "[9]": {"target": "GlcNAc(a1-3)Gal(b1-4)GlcNAc", "outline": "as §1"}, "[10]": {"target": "GlcNAc(a1-4)Gal(b1-3)GlcNAc", "outline": "as §1"}, "[11]": {"target": "GlcNAc(a1-4)Gal(b1-4)GalNAc", "outline": "as §1"}, "[12]": {"target": "GlcNAc(a1-4)Gal(b1-4)GlcNAc", "outline": "as §1"}, "[13]": {"target": "GlcNAc(a1-4)Gal(b1-4)GlcNAc(b1-3)Gal(b1-4)Glc", "outline": "as §1"}, "[14]": {"target": "GlcNAc(a1-4)Gal(b1-4)GlcNAc(b1-3)Gal(b1-4)GlcNAc", "outline": "as §1"}, "[15]": {"target": "GlcNAc(a1-4)Gal(b1-4)GlcNAc(b1-3)Gal(b1-4)GlcNAc(b1-3)Gal(b1-4)GlcNAc", "outline": "as §1"}, "[16]": {"target": "GlcNAc(a1-4)Gal(b1-4)GlcNAc(b1-3)Gal(b1-4)[Fuc(a1-3)]GlcNAc(b1-3)Gal(b1-4)[Fuc(a1-3)]GlcNAc", "outline": "as §1"}, "[17]": {"target": "GlcNAc(a1-6)Gal(b1-4)GlcNAc", "outline": "as §1"}, "[18]": {"target": "GlcNAc(b1-2)Gal(b1-3)GalNAc", "outline": "as §1"}, "[19]": {"target": "GlcNAc(b1-2)Man(a1-3)[GlcNAc(b1-2)Man(a1-6)]Man(b1-4)GlcNAc(b1-4)GlcNAc", "outline": "as §1"}, "[20]": {"target": "GlcNAc(b1-2)Man(a1-3)[GlcNAc(b1-2)Man(a1-6)]Man(b1-4)GlcNAc(b1-4)[Fuc(a1-6)]GlcNAc", "outline": "as §1"}, "[21]": {"target": "GlcNAc(b1-2)Man(a1-3)[GlcNAc(b1-4)][GlcNAc(b1-2)Man(a1-6)]Man(b1-4)GlcNAc(b1-4)GlcNAc", "outline": "as §1"}, "[22]": {"target": "GlcNAc(b1-2)Man(a1-3)[GlcNAc(b1-4)][GlcNAc(b1-2)Man(a1-6)]Man(b1-4)GlcNAc(b1-4)[Fuc(a1-6)]GlcNAc", "outline": "as §1"}, "[23]": {"target": "GlcNAc(b1-2)[GlcNAc(b1-4)]Man(a1-3)[GlcNAc(b1-2)Man(a1-6)]Man(b1-4)GlcNAc(b1-4)GlcNAc", "outline": "as §1"}, "[24]": {"target": "GlcNAc(b1-2)[GlcNAc(b1-4)]Man(a1-3)[GlcNAc(b1-4)][GlcNAc(b1-2)Man(a1-6)]Man(b1-4)GlcNAc(b1-4)GlcNAc", "outline": "as §1"}}, "note": "This is one part of the list."}
{"binder": "B1", "values": [{"measurement": "glycan array binding signal (z-score)", "setting": "[1]", "value": -0.37}, {"measurement": "glycan array binding signal (z-score)", "setting": "[2]", "value": 0.187}, {"measurement": "glycan array binding signal (z-score)", "setting": "[3]", "value": 1.08}, {"measurement": "glycan array binding signal (z-score)", "setting": "GalNAc(b1-4)GlcNAc6S", "value": 0.186}, {"measurement": "glycan array binding signal (z-score)", "setting": "GalNAc(b1-6)GalNAc", "value": -1.19}, {"measurement": "glycan array binding signal (z-score)", "setting": "GalNAc3S(b1-4)GlcNAc", "value": -0.158}, {"measurement": "glycan array binding signal (z-score)", "setting": "GalNAc3S(b1-4)GlcNAc3S", "value": 0.188}, {"measurement": "glycan array binding signal (z-score)", "setting": "[4]", "value": -1.11}, {"measurement": "glycan array binding signal (z-score)", "setting": "GalNAc4S6S(b1-4)GlcNAc", "value": -0.216}, {"measurement": "glycan array binding signal (z-score)", "setting": "GalNAc6S(b1-4)GlcNAc", "value": -0.739}, {"measurement": "glycan array binding signal (z-score)", "setting": "Glc(a1-4)Glc", "value": -0.473}, {"measurement": "glycan array binding signal (z-score)", "setting": "[5]", "value": -0.793}, {"measurement": "glycan array binding signal (z-score)", "setting": "Glc(a1-6)Glc(a1-6)Glc", "value": -0.059}, {"measurement": "glycan array binding signal (z-score)", "setting": "[6]", "value": 0.019}, {"measurement": "glycan array binding signal (z-score)", "setting": "Glc(b1-4)Glc", "value": -1.32}, {"measurement": "glycan array binding signal (z-score)", "setting": "Glc(b1-6)Glc", "value": -0.429}, {"measurement": "glycan array binding signal (z-score)", "setting": "GlcA(b1-3)Gal", "value": 0.134}, {"measurement": "glycan array binding signal (z-score)", "setting": "GlcA(b1-3)GlcNAc", "value": -0.799}, {"measurement": "glycan array binding signal (z-score)", "setting": "GlcA(b1-6)Gal", "value": -1.1}, {"measurement": "glycan array binding signal (z-score)", "setting": "[7]", "value": -1.16}, {"measurement": "glycan array binding signal (z-score)", "setting": "[8]", "value": -2.01}, {"measurement": "glycan array binding signal (z-score)", "setting": "[9]", "value": -1.19}, {"measurement": "glycan array binding signal (z-score)", "setting": "[10]", "value": -0.746}, {"measurement": "glycan array binding signal (z-score)", "setting": "[11]", "value": -1.11}, {"measurement": "glycan array binding signal (z-score)", "setting": "[12]", "value": 0.089}, {"measurement": "glycan array binding signal (z-score)", "setting": "[13]", "value": 0.199}, {"measurement": "glycan array binding signal (z-score)", "setting": "[14]", "value": -0.366}, {"measurement": "glycan array binding signal (z-score)", "setting": "[15]", "value": 0.69}, {"measurement": "glycan array binding signal (z-score)", "setting": "[16]", "value": 2.09}, {"measurement": "glycan array binding signal (z-score)", "setting": "[17]", "value": 1.35}, {"measurement": "glycan array binding signal (z-score)", "setting": "[18]", "value": 0.328}, {"measurement": "glycan array binding signal (z-score)", "setting": "[19]", "value": -0.46}, {"measurement": "glycan array binding signal (z-score)", "setting": "[20]", "value": -0.486}, {"measurement": "glycan array binding signal (z-score)", "setting": "[21]", "value": -1.44}, {"measurement": "glycan array binding signal (z-score)", "setting": "[22]", "value": -0.448}, {"measurement": "glycan array binding signal (z-score)", "setting": "[23]", "value": -0.067}, {"measurement": "glycan array binding signal (z-score)", "setting": "[24]", "value": 0.9}]}
